Test results: PubChem BioAssay AID2685 (National Center for Advancing Translational Sciences (NCATS), 2010)
This is one part of the list. Further columns of the screen follow, without active or inactive calls. Most of these compounds were active or inconclusive in the main read-out, so they are no random draw. Potencies come from curve fits of mixed quality, noted in brackets.

Assay: qHTS Assay for Lipid Storage Modulators in Drosophila S3 Cells;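 as to cell number change: cells counted by Cell Tracker Red CMTPX staining in the red channel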
Settings: BODIPY lipid droplet fluorescence, 18-24 h; for cell number change: measured here: cell count max response, cells fed with added oleic acid
Procedure, shortened: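 Drosophila S3 cells got compounds at several concentrations plus oleic acid (400 uM solution). Laser-scanning cytometry with 488 nm excitation read lipid droplets at 500-530 nm and cells at 575-640 nm. Percent activity was relative to 20 uM Triacsin C.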

[1] = measured here: lipid fluorescence (Fed channel) AC50, cells fed with added oleic acid
[2] = measured here: cell number channel AC50, cells fed with added oleic acid

Q: With `CCn1cc(CN2CCC(n3nccc3NC(=O)c3ccccc3C)CC2)cn1` as the compound, how does the cell number change read?
A: -3.47%

Q: Which cell number change does the source give for `CC(NC(=O)c1ccccc1)c1nnc(SCc2nc3ccccc3c(=O)[nH]2)n1C` (stereo not drawn) here?
A: 7.06%

Q: And the AC50 [1]?
A: 6510 nM [falling, single point]

Q: For `O=Cc1ccc(OCCOc2ccc([N+](=O)[O-])cc2)cc1`, which cell number change is on record?
A: -14.6%

Q: And the AC50 [1]?
A: 1840 nM [rising, partial curve, poor fit]

Q: For `N#CCCN(/N=C/c1cccnc1)C1=NS(=O)(=O)c2ccccc21`, which AC50 [2] is on record?
A: 580 nM [rising, partial curve]

Q: And the AC50 [1]?
A: 580 nM [rising, partial curve]

Q: What does the source list for `COc1ccc(NC(=S)NCCCN2CCN(C3CCCCC3)CC2)cc1`?
A: cell number change: 7.95%; AC50 [1]: 32600 nM [rising, single point]

Q: For `Cc1ccc(CNS(=O)(=O)c2c(C(=O)N3CCCCC3)c(C)n(C)c2C)o1`, which cell number change is on record?
A: 22%

Q: And the AC50 [2]?
A: 2060 nM [rising, partial curve, poor fit]

Q: What does the source list for `CCOc1ccc(NC(=O)COC(=O)Cc2ccc(S(=O)(=O)N3CCOCC3)s2)cc1`?
A: cell number change: 83.1%; AC50 [2]: 29100 nM [rising, single point]

Q: What does the source list for `COc1ccc2sc(-c3ccc(N(C)C)cc3)c(C#CCO)c2c1`?
A: cell number change: -53%; AC50 [2]: 5800 nM [falling, single point]

Q: With `CCCc1c(C(=O)OCC)[nH]c2c1C(=O)CCC2` as the compound, how does the cell number change read?
A: 14.3%

Q: For `O=C(CSc1nc(=O)n(CCCN2CCOCC2)c2c1CCC2)Nc1ccc(F)cc1F`, which AC50 [2] is on record?
A: 461 nM [rising, single point]

Q: Which cell number change does the source give for `COc1ccc(N2C(=NC(=O)C3CCCCC3)SC3CS(=O)(=O)CC32)cc1Cl` (stereo not drawn) here?
A: -0.407%

Q: What about the AC50 [1] of the same compound?
A: 6510 nM [falling, single point]

Q: With `O=C(CCl)NN1C(=O)NC(c2ccccc2)(c2ccccc2)C1=O` as the compound, how does the cell number change read?
A: 24.4%

Q: Which cell number change does the source give for `COc1ccc(NC(=O)CNC(=O)c2sc3ccccc3c2Cl)c(OC)c1` here?
A: -53%

Q: And the AC50 [2]?
A: 29100 nM [falling, single point]

Q: And the AC50 [1]?
A: 6510 nM [falling, partial curve]

Q: With `O=C(Cn1ccc([N+](=O)[O-])n1)N1CCCCC1` as the compound, how does the cell number change read?
A: -36.5%

Q: What does the source list for `CCc1nnc(NC(=O)c2ccc(S(=O)(=O)N3CCCC(C)C3)cc2)o1` (stereo not drawn)?
A: cell number change: 1.51%; AC50 [1]: 2310 nM [falling, partial curve, poor fit]

Q: For `COC(=O)C1(Cc2cc(-c3ccc(OC)cc3OC)no2)CCN(C(=O)OC(C)(C)C)CC1`, which cell number change is on record?
A: 11.3%

Q: With `CCOc1ccccc1C(=O)NCC(=O)Nc1ncccc1C` as the compound, how does the cell number change read?
A: 43.3%

Q: What about the AC50 [2] of the same compound?
A: 1030 nM [rising, full curve]

Q: What about the AC50 [1] of the same compound?
A: 1300 nM [rising, full curve]

Q: Which results are given for `C=C1CCN([C@H](C(=O)NCc2ccc(Cl)cc2)C(C)C)S(=O)(=O)c2ccccc21`?
A: cell number change: 12.4%; AC50 [1]: 25900 nM [rising, single point]

Q: Which cell number change does the source give for `CC(C)(C)c1nnc(N/N=C/c2cc(Br)ccc2O)n(N)c1=O` here?
A: -34.8%

Q: And the AC50 [2]?
A: 18400 nM [falling, single point]

Q: What about the AC50 [1] of the same compound?
A: 16400 nM [falling, single point]

Q: With `CC1COc2ccccc2N1S(=O)(=O)c1ccc(Cl)cc1` (stereo not drawn) as the compound, how does the cell number change read?
A: -12.5%

Q: And the AC50 [1]?
A: 14600 nM [rising, single point]

Q: Which results are given for `Cc1c(Cl)cccc1NC(=S)NC1CC1`?
A: cell number change: -13.9%; AC50 [1]: 820 nM [falling, full curve]

Q: Which cell number change does the source give for `CCCCN(C(=O)c1c(C)noc1C)c1c(N)n(CCCC)c(=O)[nH]c1=O` here?
A: 19%

Q: Which cell number change does the source give for `O=C(Cc1ccc([N+](=O)[O-])cc1)NCc1cccnc1` here?
A: 4.53%

Q: Which results are given for `C=CCNC(=O)c1cc2c(=O)c3ccccc3oc2nc1C`?
A: cell number change: -41%; AC50 [2]: 29100 nM [falling, single point]; AC50 [1]: 18400 nM [falling, partial curve]

Q: Which cell number change does the source give for `CCC(=O)Nc1ccc(NC(=O)c2cc3ccccc3o2)cc1` here?
A: -25.8%

Q: For `CC(c1ccccc1)C(NC(=O)OCC1c2ccccc2-c2ccccc21)C(=O)O` (stereo not drawn), which cell number change is on record?
A: 33.9%

Q: And the AC50 [2]?
A: 461 nM [rising, partial curve]

Q: And the AC50 [1]?
A: 29100 nM [rising, single point]

Q: With `CCc1ccc(OCC2c3cc(OC)c(OC)cc3CCN2C(C)=O)cc1` (stereo not drawn) as the compound, how does the cell number change read?
A: -15.9%

Q: What about the AC50 [1] of the same compound?
A: 291 nM [falling, partial curve, poor fit]

Q: For `Cc1ccnc(NC(=O)CCC(=O)N(CC(=O)NC2CCCCC2)c2ccc3c(c2)OCO3)c1`, which cell number change is on record?
A: -3.17%

Q: Which cell number change does the source give for `COCCCNC(=O)c1cn(C)c(=O)c2cc(OC)c(OC)cc12` here?
A: 22%

Q: And the AC50 [1]?
A: 29100 nM [falling, single point]

Q: What does the source list for `COc1ccc(-c2cc(C(F)F)n3ncc(C(=O)N4CCCc5ccccc54)c3n2)cc1`?
A: cell number change: -24.3%; AC50 [1]: 146 nM [falling, full curve, poor fit]

Q: Which results are given for `O=C1C=C(N2CCCCCC2)C(=O)N1c1ccc(Cl)cc1`?
A: cell number change: 23%; AC50 [1]: 13 nM [rising, full curve, poor fit]

Q: With `CC1CCN(S(=O)(=O)c2ccc(N=NC3=C(O)CC(C)(C)CC3=O)cc2)CC1` as the compound, how does the cell number change read?
A: -3.21%

Q: What about the AC50 [1] of the same compound?
A: 6510 nM [rising, single point]

Q: Which cell number change does the source give for `CCCn1c(SCC(=O)O)nc2ccccc21` here?
A: 126%

Q: What about the AC50 [2] of the same compound?
A: 18400 nM [rising, single point]

Q: And the AC50 [1]?
A: 259 nM [falling, partial curve, poor fit]

Q: For `CCOC(=O)N1CCC(=NNc2ccc(S(N)(=O)=O)cc2[N+](=O)[O-])CC1`, which cell number change is on record?
A: -31.4%

Q: And the AC50 [2]?
A: 10300 nM [falling, partial curve, poor fit]

Q: What about the AC50 [1] of the same compound?
A: 2060 nM [falling, partial curve]

Q: With `COC(=O)c1ccc(NC(=O)C(C)Oc2ccccc2)cc1` (stereo not drawn) as the compound, how does the cell number change read?
A: 42.8%

Q: What about the AC50 [1] of the same compound?
A: 580 nM [falling, single point]

Q: For `Clc1ccc(CCNc2nc3ccccc3n3nnnc23)cc1`, which cell number change is on record?
A: 4.88%

Q: What about the AC50 [1] of the same compound?
A: 920 nM [falling, full curve, poor fit]

Q: With `O=C(CSc1nnc(Nc2ccccc2F)s1)NC1CC1` as the compound, how does the cell number change read?
A: 8.78%

Q: And the AC50 [1]?
A: 116 nM [falling, full curve, poor fit]

Q: Which results are given for `CCCOc1ccc(-c2csc(NC(=O)CN3C(=O)CCC3=O)n2)cc1`?
A: cell number change: -24.5%; AC50 [1]: 2060 nM [falling, full curve]

Q: For `NS(=O)(=O)c1ccc(CNC(=S)NCc2ccc(Cl)cc2)cc1`, which cell number change is on record?
A: -20.8%

Q: What about the AC50 [1] of the same compound?
A: 164 nM [falling, full curve, poor fit]

Q: For `Cc1c(OCc2ccc(C(=O)O)o2)ccc2c3c(c(=O)oc12)CCC3`, which cell number change is on record?
A: 1.24%

Q: And the AC50 [1]?
A: 6510 nM [rising, single point]

Q: With `Cc1ccc(S(=O)(=O)N(C)C)cc1NC(=O)CN1C(=O)NC(Cc2c[nH]c3ccccc23)C1=O` (stereo not drawn) as the compound, how does the cell number change read?
A: -44.9%

Q: And the AC50 [2]?
A: 29100 nM [falling, single point]

Q: Which results are given for `O=C(COC(=O)C1CCN(S(=O)(=O)c2cccc3cccnc23)CC1)c1ccccc1`?
A: cell number change: -11.7%; AC50 [2]: 3260 nM [rising, single point]; AC50 [1]: 2310 nM [falling, partial curve]

Q: For `NC(=O)c1ccsc1NC(=O)COC(=O)CNC(=O)c1ccc(F)cc1`, which cell number change is on record?
A: 16.8%

Q: And the AC50 [2]?
A: 29.1 nM [rising, full curve, poor fit]

Q: And the AC50 [1]?
A: 58 nM [rising, full curve, poor fit]

Q: For `CCOC(=O)c1sc(NC(=O)CSc2nc(C)cc(C)c2C#N)c(C#N)c1C`, which cell number change is on record?
A: -15.8%

Q: What about the AC50 [2] of the same compound?
A: 116 nM [falling, full curve, poor fit]

Q: For `CN1C(=O)c2ccc(C(=O)NCc3ccc4c(c3)OCO4)cc2C1=O`, which cell number change is on record?
A: 35.8%

Q: And the AC50 [2]?
A: 20600 nM [rising, single point]

Q: And the AC50 [1]?
A: 18400 nM [rising, single point]

Q: For `CN(C)S(=O)(=O)c1cccc(NC(=O)CC23CC4CC(CC(C4)C2)C3)c1`, which cell number change is on record?
A: -28.1%

Q: With `CCCC(=O)Nc1nc2c(c(=O)[nH]1)CCCC2` as the compound, how does the cell number change read?
A: -7.24%

Q: And the AC50 [2]?
A: 1300 nM [falling, partial curve, poor fit]

Q: What about the AC50 [1] of the same compound?
A: 3260 nM [falling, full curve, poor fit]

Q: With `COc1ccc2nc(N3CCN(C(=O)C4COc5ccccc5O4)CC3)sc2c1` (stereo not drawn) as the compound, how does the cell number change read?
A: 61.8%

Q: What about the AC50 [2] of the same compound?
A: 29100 nM [rising, single point]

Q: For `CCSc1nc(N)c2c3c(sc2n1)CCC3`, which cell number change is on record?
A: -6.39%

Q: And the AC50 [1]?
A: 1460 nM [rising, full curve, poor fit]

Q: For `CCCCC[C@H]1CN(C2CCCCC2)C(=O)[C@@H]1CC(=O)NCc1ccccc1`, which AC50 [1] is on record?
A: 18400 nM [falling, partial curve, poor fit]

Q: For `COCCN=c1scc(-c2cccs2)n1/N=C(\C)c1ccco1`, which cell number change is on record?
A: 1.78%

Q: With `O=C(CCCN1C(=O)NC2(CCCC2)C1=O)Nc1ccc(F)cc1` as the compound, how does the cell number change read?
A: -33.4%

Q: And the AC50 [2]?
A: 2590 nM [falling, full curve]

Q: What about the AC50 [1] of the same compound?
A: 9200 nM [falling, partial curve]

Q: What does the source list for `COc1cc(/C=N/NC(=O)c2ccccc2NS(=O)(=O)c2cccs2)ccc1O`?
A: cell number change: 5.78%; AC50 [1]: 920 nM [rising, partial curve]

Q: Which cell number change does the source give for `COC(=O)CN1C(=O)N(c2ccccc2)C(N(O)C(=O)Nc2ccccc2)C1(C)C` (stereo not drawn) here?
A: -5.02%

Q: Which cell number change does the source give for `Cc1ccc2nc(-c3ccccc3)nc(SC(C)C(=O)NCc3cccs3)c2c1` (stereo not drawn) here?
A: -30.2%

Q: What about the AC50 [2] of the same compound?
A: 731 nM [falling, full curve]

Q: And the AC50 [1]?
A: 731 nM [falling, full curve]

Q: Which cell number change does the source give for `CCc1cccc(NC(=O)CCS(=O)(=O)c2ccc3c(c2)NC(=O)CO3)c1` here?
A: -22.1%

Q: What about the AC50 [1] of the same compound?
A: 4110 nM [falling, full curve]

Q: For `O=C(Nc1ccc(Cl)c(Cl)c1)C1CC(=O)N(c2ccc(Br)cc2)C1` (stereo not drawn), which cell number change is on record?
A: -50.7%

Q: What about the AC50 [2] of the same compound?
A: 20600 nM [falling, single point]

Q: And the AC50 [1]?
A: 18400 nM [falling, single point]

Q: For `O=C(CCC(=O)c1cccs1)NCc1ccncc1`, which cell number change is on record?
A: 9.9%

Q: What about the AC50 [1] of the same compound?
A: 130 nM [rising, full curve, poor fit]

Q: For `COCCN(C(=O)CSc1nnc(-c2ccc(C(C)(C)C)cc2)n1N)c1c(N)n(CC(C)C)c(=O)[nH]c1=O`, which cell number change is on record?
A: -79.1%

Q: What about the AC50 [2] of the same compound?
A: 23100 nM [falling, partial curve]
